This assay addresses T1, Bud20-TAP (S. cerevisiae) (UniProt Q08004).
T1 sequence: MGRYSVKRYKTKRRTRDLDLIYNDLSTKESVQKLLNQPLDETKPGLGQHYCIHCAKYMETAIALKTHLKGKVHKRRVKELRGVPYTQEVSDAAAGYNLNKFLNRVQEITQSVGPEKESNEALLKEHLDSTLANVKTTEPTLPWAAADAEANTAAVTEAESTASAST
Nature of the assay: co-IP; affinity purification of pre-60S particles via Bud20-TAP from S. cerevisiae crm1^T539C (untreated, LmB and/or diazaborine; ARX1 or Δarx1 background), SDS-PAGE and western blotting. For orientation: In western blotting, separated proteins are transferred to a membrane and probed.

By UniProt entry, the sequences of proteins in these tests, tags left out.
UniProt P53742: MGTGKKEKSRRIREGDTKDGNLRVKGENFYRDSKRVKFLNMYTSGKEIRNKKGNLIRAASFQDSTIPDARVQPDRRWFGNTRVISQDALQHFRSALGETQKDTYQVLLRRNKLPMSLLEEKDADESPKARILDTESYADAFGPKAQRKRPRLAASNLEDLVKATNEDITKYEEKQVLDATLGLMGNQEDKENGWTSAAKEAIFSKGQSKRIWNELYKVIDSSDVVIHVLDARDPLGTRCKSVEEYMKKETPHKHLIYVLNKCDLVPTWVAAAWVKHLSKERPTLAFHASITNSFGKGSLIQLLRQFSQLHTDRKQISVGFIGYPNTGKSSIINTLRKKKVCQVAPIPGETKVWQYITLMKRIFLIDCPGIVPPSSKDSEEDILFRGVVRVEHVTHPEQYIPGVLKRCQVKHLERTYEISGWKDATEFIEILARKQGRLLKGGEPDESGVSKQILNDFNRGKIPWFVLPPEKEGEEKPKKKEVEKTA
UniProt Q12522: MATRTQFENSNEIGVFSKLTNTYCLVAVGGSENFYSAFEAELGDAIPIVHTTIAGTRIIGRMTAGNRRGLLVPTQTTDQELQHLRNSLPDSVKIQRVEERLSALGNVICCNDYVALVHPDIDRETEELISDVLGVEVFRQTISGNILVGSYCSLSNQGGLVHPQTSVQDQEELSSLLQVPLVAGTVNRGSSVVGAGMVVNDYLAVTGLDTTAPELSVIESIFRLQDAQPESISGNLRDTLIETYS

No constants are given. Whether binding was seen depends on the method and setting. Binding seen in cells or lysates may run through a third protein. Some results given as binding are weak or reduced against the parent protein; the word gives no strength.

On to Nog2 (from UniProt P53742 1-486), for which the binding entry was “binds”. To “Tif6 on the pre-60S particle (from UniProt Q12522 1-245)” belongs “binds”.

Source of the values: publication PMC9507969.
